Source: publication doi:10.1101/808899
Where two headings read alike, the source gives them in different places. These are yes or no findings as the source states them, for the method shown. Binding can be weak; no strength is given.

What was measured:
Assay in all cases: cryo-EM structure
[1] = target: alpha-tubulin (bovine brain), subunit in the microtubule lattice (bovine)
[2] = target: beta-tubulin (bovine brain), subunit in the microtubule lattice (bovine)
[3] = target: Microtubule lattice of bovine brain alpha/beta-tubulin heterodimers (bovine)
[4] = target: alpha-tubulin (bovine brain), subunit in the microtubule lattice (bovine); remark: listed apart in the source
[5] = target: beta-tubulin (bovine brain), subunit in the microtubule lattice (bovine); remark: listed apart in the source
[6] = target: Microtubule lattice of bovine brain alpha/beta-tubulin heterodimers (bovine); remark: listed apart in the source

Measured: binding

B1: Doublecortin (DCX), human isoform 2, wild-type (protein, UniProt O43602-2 1-360)
chain: MELDFGHFDERDKTSRNMRGSRMNGLPSPTHSAHCSFYRTRTLQALSNEKKAKKVRFYRNGDRYFKGIVYAVSSDRFRSFDALLADLTRSLSDNINLPQGVRYIYTIDGSRKIGSMDELEEGESYVCSSDNFFKKVEYTKNVNPNWSVNVKTSANMKAPQSLASSNSAQARENKDFVRPKLVTIIRSGVKPRKAVRVLLNKKTAHSFEQVLTDITEAIKLETGVVKKLYTLDGKQVTCLHDFFGDDDVFIACGPEKFRYAQDDFSLDENECRVMKGNPSATAGPKASPTPQKTSAKSPGPMRRSKSPADSANGTSSSQLSTPKSKQSPISTPTSPGSLRKHKDLYLPLSLDDSDSLGDSM
binds: all assays above
